# Primary screen of a compound library

Sequences of proteins named here, by UniProt entry; tags and fusion partners are left off.
UniProt P9WFT3, whole entry: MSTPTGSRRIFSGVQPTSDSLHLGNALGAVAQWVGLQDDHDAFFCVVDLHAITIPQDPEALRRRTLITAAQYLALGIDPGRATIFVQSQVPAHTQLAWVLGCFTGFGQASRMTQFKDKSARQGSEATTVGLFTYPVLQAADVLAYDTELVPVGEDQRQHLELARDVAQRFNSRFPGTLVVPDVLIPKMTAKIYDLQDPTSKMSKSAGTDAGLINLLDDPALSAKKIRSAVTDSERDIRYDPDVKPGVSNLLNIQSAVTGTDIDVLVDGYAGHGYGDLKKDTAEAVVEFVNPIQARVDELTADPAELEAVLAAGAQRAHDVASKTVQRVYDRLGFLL
UniProt P9WPC5, whole entry: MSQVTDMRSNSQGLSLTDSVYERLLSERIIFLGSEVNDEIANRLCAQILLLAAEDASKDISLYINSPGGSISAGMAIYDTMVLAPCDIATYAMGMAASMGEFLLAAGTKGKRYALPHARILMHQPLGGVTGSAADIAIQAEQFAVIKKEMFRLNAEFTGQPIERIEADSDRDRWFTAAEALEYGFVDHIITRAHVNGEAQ
UniProt P9WPC3, whole entry partner: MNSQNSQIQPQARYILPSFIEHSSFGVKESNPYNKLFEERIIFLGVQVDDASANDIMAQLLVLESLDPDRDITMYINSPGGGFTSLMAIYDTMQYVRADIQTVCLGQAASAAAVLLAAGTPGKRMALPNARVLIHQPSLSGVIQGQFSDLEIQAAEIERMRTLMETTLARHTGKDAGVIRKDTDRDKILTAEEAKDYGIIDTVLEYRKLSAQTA
UniProt P9WNZ1, whole entry: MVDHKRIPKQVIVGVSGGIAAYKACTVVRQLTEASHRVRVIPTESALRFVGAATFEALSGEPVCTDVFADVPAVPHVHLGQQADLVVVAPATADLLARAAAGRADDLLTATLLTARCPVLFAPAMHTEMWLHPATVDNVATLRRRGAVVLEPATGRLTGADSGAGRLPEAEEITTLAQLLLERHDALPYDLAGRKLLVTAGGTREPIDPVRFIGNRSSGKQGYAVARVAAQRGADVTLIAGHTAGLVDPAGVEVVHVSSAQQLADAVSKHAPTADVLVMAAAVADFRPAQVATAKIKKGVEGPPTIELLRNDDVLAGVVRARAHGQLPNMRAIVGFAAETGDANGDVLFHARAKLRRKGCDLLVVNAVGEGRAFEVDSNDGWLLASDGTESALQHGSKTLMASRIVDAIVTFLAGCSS
UniProt I6X8D2, whole entry: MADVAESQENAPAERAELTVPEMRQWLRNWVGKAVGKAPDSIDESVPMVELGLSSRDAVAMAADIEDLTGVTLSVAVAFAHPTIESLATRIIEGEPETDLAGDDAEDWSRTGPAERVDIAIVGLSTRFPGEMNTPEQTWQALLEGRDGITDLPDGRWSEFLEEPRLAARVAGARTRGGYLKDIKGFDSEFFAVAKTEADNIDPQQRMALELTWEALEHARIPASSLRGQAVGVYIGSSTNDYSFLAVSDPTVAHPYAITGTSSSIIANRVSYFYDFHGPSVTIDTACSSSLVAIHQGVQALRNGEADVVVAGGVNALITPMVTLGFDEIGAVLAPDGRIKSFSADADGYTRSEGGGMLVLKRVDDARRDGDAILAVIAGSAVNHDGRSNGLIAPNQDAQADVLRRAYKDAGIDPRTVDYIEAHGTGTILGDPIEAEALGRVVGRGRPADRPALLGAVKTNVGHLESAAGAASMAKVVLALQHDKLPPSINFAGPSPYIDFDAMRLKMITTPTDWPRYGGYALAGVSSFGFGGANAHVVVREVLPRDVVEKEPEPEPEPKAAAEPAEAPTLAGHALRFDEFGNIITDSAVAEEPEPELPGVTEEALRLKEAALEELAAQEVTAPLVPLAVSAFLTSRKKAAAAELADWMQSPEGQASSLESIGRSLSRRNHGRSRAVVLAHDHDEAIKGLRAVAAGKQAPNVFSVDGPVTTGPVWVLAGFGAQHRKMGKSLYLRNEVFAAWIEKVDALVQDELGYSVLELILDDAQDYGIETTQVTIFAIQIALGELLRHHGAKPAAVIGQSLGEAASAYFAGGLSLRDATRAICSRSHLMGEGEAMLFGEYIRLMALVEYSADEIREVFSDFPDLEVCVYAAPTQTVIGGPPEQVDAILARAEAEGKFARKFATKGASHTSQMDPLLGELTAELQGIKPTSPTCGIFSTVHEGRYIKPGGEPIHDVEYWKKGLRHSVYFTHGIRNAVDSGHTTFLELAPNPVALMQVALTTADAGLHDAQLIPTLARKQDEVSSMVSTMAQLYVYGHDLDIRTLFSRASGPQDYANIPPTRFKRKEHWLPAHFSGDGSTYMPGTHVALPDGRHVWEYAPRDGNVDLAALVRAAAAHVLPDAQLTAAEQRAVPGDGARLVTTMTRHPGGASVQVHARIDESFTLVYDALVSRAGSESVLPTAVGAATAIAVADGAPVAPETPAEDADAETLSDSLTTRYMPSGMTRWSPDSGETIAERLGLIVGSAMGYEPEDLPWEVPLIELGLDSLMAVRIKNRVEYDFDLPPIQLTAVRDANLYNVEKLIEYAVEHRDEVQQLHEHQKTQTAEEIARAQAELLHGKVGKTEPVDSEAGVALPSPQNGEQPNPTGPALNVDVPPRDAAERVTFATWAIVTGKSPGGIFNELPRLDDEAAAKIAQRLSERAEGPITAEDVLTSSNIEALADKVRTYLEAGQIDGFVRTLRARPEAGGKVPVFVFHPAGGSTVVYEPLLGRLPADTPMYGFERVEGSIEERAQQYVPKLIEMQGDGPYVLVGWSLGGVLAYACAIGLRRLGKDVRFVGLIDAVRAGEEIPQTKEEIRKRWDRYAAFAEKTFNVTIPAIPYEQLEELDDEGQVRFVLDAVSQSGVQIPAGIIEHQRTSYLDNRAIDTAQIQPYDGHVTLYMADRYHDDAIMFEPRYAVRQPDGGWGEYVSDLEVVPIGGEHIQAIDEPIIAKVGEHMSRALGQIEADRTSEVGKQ

A: 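Tryptophan-tRNA ligase, Mycobacterium tuberculosis (UniProt P9WFT3). Enzyme assay of tryptophanyl-tRNA synthetase; the read-out is not stated. Tested at 10 µM. Direction is not recorded; retested compounds ran higher, which suggests that high means inhibition. Of about 65,000 compounds tested this way, about 64 (0.098%) reached 50% or more in at least one test.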
B: 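Assay of Toxoplasma gondii numbers, read through their beta-galactosidase reporter with a colour substrate. Concentration: 10 µM. The record gives no direction; the compounds picked for IC50 retests had high values, so higher reads as fewer parasites. Of about 67,000 compounds tested this way, about 260 (0.38%) reached 50% or more in at least one test.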
C: 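ClpP1P2, Mycobacterium tuberculosis (UniProt P9WPC5 and UniProt P9WPC3). Protease assay of ClpP1P2, read by the AMC dye that it sets free. Tested at 50 µM. Higher reads as stronger inhibition, judged from the few compounds that gave an IC50. Most other retested compounds had strongly negative values. Of about 69,000 compounds tested this way, about 10 (0.015%) reached 50% or more in at least one test.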
D: 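Coenzyme A biosynthesis protein CoaBC, Mycobacterium tuberculosis (UniProt P9WNZ1). Enzyme assay of CoaBC with a phosphate dye (Biomol Green) read at 650 nm. Compounds at 30 µM. Higher reads as stronger inhibition, judged from the few compounds that gave an IC50. Most strong results did not repeat in a second test. Of about 67,000 compounds tested this way, about 40 (0.06%) reached 50% or more in at least one test.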
E: 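Polyketide synthase Pks13, Mycobacterium tuberculosis (UniProt I6X8D2). Enzyme assay of the thioesterase domain of polyketide synthase 13; the read-out is not stated. Concentration: 30 µM. Higher reads as stronger inhibition (inferred from which compounds were picked for retests). Size under these conditions: about 67,000 compounds, about 300 of them at 50% or above in at least one test.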

Results are given as percent effect. How 0% and 100% were set is not recorded. Most values in the screen are low, and negative values occur. This is an unselected part of the compounds tested. A dash means the value is not listed here; it may have been measured.

Compound,A,B,C,D,E
Cc1ccc(C(=O)N2CCCC(C(=O)N3CCCCC3)C2)c(O)c1 (centres unmarked),-4.46,3.963,6.962,-3.203,-12.99
Cn1cc(CN2CC[C@@H]3[C@@H](CCC(=O)N3CC3CCNCC3)C2)cn1,-2.29,-,-14.19,-1.818,0.08388
Cc1cnn(CCNCC(=O)N(C)C(C)c2ccccc2)c1 (centres unmarked),-2.97,14.99,-4.837,3.181,-2.566
O=C(O)C(F)(F)F.O=C(O)C(F)(F)F.O=C(c1ccncc1F)N1Cc2nc(CN3CCCCC3)oc2C1,-,31.12,-,-,-
[H][C@@]12CN(C(=O)c3cccn3C)C[C@]1([H])C(=O)N(CC)C2,-,7.478,-,-,-
CCC(C)NC(=O)c1cccc(CNCc2csc(C(C)C)n2)c1 (centres unmarked),1.414,21.13,0.9431,-1.665,5.334
CCc1nnsc1C(=O)N1CCCC(COc2ccc(F)cc2)C1 (centres unmarked),-1.104,12.74,-1.651,-6.542,-24.23
CC1CCN(C(=O)CN2CC(c3nc(C4CC4)no3)C2)CC1,1.607,-,-9.672,-1.788,2.591
Cc1cccc(N2CCN(C(=O)CCc3ccsc3)C(C)C2)n1 (centres unmarked),2.795,2.365,-24,3.544,-7.427
CNCC(=O)N1CC(c2cc(Nc3nc(C)cs3)nc(C)n2)C1.Cl,-,-3.179,-,-,-
O=C(O)C(F)(F)F.[H][C@@]12CCN(S(C)(=O)=O)C[C@]1(C(=O)NCCc1ccccn1)CCO2,-,6.692,-,-,-
COC(=O)c1ccc(OC)c(Cn2cc(N)cn2)c1,6.553,7.29,0.3148,-9.375,-0.721
O=C(O)C(F)(F)F.[H][C@]12CC[C@@]3(N=C(CC)N(C)C3=O)[C@@]1([H])CN(Cc1cccc(Cl)c1)C2,-,-16.83,-,-,-
c1ccc(OCc2cscn2)c(CNC2CCc3ncnn3C2)c1 (centres unmarked),-5.749,2.034,-17.58,-1.579,-7.362
[H][C@@]12CCN(C3CCCC3)C[C@]1(C(=O)N1CCOCC1)CCO2,-,-12.46,-,-,-
O=C1C[C@H]2[C@H](CCN2C(=O)c2cc[nH]n2)N1Cc1cccnc1,-8.14,-,-0.3867,5.277,-24.83
Cc1nsc(NC(=O)NC2(CN3CCOCC3)CCCCC2)n1,2.602,-6.809,-9.016,1.489,0.213
[H][C@]12CN(Cc3ccc(C)c(C)c3)CC[C@@]1(O)CCN(S(=O)(=O)N(C)C)C2,-,-9.645,-,-,-
NCc1n[nH]c(=O)n1-c1cccc(Cl)c1Cl,0.8051,-15.12,-11.07,-7.576,-64.31
Cc1ccc(CN2Cc3nnn(C)c3C(COCC3CC3)C2)o1.O=C(O)C(F)(F)F (centres unmarked),-,7.294,-,-,-
CCOCC(=O)N1CCC(CSCc2ccco2)CC1,-4.803,-15.35,-3.675,5.462,9.091
CCOc1ccc(CNC(=O)N(C)CC(C)(C)O)cc1C,4.756,-1.457,-13.02,-0.128,20.37
O=C(NCC1Cn2nnc(-c3ccncc3)c2CO1)c1ccc[nH]1 (centres unmarked),-5.58,5.767,-8.145,0.4202,-3.919
O=C(Cc1cccc(F)c1)N1CCc2ncnc(NC3CC3)c2CC1,-,-,-2.877,1.235,121.2
COc1ccccc1-c1ccc(NCc2cn3c(n2)SCC3)nn1,1.06,-3.167,-12.53,18.12,-13.88
CC1CN(C)c2ccccc2CN1C(=O)c1cc(C#N)cn1C (centres unmarked),10.47,-0.6242,-7.418,7.172,-17.33
COCCN(Cc1cccc(O)c1)CC1CC1,3.204,12.01,-15.8,-0.7595,-14.76
CCC(CNC(=O)NCc1cc[nH]n1)N1CCCC1 (centres unmarked),4.837,-3.42,-3.99,-1.288,7.053
[H][C@@]12CCN(S(C)(=O)=O)[C@]1([H])CC[C@H](C(=O)NCCOC)O2,-,-3.775,-,-,-
CCCC(CNc1cc(C(C)C)nc2ccnn12)N(C)C (centres unmarked),18.03,4.116,2.144,-7.725,-1.065
Cc1cccc(CN2CC[C@@H]3[C@@H]2CCN3C(=O)c2cc(C)on2)n1,-0.9682,-,-12.4,2.757,0.5542
CC(C)COC(=O)N1CC(=O)N(CCCc2ccccc2)CC(O)C1 (centres unmarked),-,-56.32,12.25,3.874,-5.7
[H][C@]12CC[C@]([H])(CN(Cc3ccc(OC)cc3)C1)N(S(=O)(=O)C1CC1)C2,-,22.29,-,-,-
CN(C)Cc1cccc(-c2cccnc2C(=O)NCc2ccccn2)c1,-7.784,23.17,-6.036,1.973,-4.931
CS(=O)(=O)NCC1CCCN(C(=O)c2ccco2)C1 (centres unmarked),-7.345,21.73,-22.64,4.54,5.446
CC(C)CNC(=O)c1c(-n2cnnn2)sc2c1CCC2,-1.589,-0.553,-7.583,4.184,-25.89
N#Cc1cccc(CNCCC(=O)N2CCc3sccc3C2)c1,-2.147,-3.823,-10.16,4.263,-2.87
O=C(NCCCO)c1nc(-c2ccc3cc[nH]c3c2)no1,-0.07003,19.76,3.217,2.525,3.394
[H][C@@]12C[C@H](C(=O)Nc3cccnc3)[C@@]([H])(CN(Cc3ccc(OC)cc3)C1)O2,-,-15.63,-,-,-
Cc1ccc(C)c(S(=O)(=O)NC(=O)c2ccc(C)[nH]c2=O)c1,-2.774,-4.754,-16.48,2.806,-4.191
O=C(Nc1ccccc1)N1C[C@H]2CC[C@@H]1CN(Cc1ccccc1)C2,-2.716,-,-13.75,-3.086,-4.609

4 of the entries, repeated:

{"compound": "COc1ccccc1-c1ccc(NCc2cn3c(n2)SCC3)nn1", "A": 1.06, "B": -3.167, "C": -12.53, "D": 18.12, "E": -13.88}
{"compound": "O=C(Nc1ccccc1)N1C[C@H]2CC[C@@H]1CN(Cc1ccccc1)C2", "A": -2.716, "C": -13.75, "D": -3.086, "E": -4.609}
{"compound": "O=C(Cc1cccc(F)c1)N1CCc2ncnc(NC3CC3)c2CC1", "C": -2.877, "D": 1.235, "E": 121.2}
{"compound": "[H][C@@]12CN(C(=O)c3cccn3C)C[C@]1([H])C(=O)N(CC)C2", "B": 7.478}

Measurements from “University of Dundee, Small-Polar-MMV Screening Library” (2021), ChEMBL document CHEMBL3988442.